PubChem BioAssay AID493014 (National Center for Advancing Translational Sciences (NCATS), 2011)
Some of the results follow. The main result of the screen is listed elsewhere. These columns were measured beside it and carry no call. Most of these compounds were active or inconclusive in the main read-out, so they are no random draw. The note in brackets gives the kind of curve behind each potency; many fits are weak.

Assay: qHTS Assay to Find Inhibitors of Chronic Active B-Cell Receptor Signaling
Details: ABC-DLBCL IkBa-CBG/CBR reporter, luminescence ratio (green luciferase fused to IkBa over red control in TMD8 lymphoma cells), 4 h
Summary of the method: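 TMD8 ABC-DLBCL cells carrying doxycycline-inducible green luciferase fused to IkappaBalpha plus unfused red luciferase were exposed to compounds (up to 46 uM) for 4 hrs at 37C. Activity came from the overlap-corrected green/red luminescence ratio.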

[1] = measured here: CBR red luminescence, cell number
[2] = measured here: IkBa-CBG green luminescence

| SMILES | AC50 [1] | AC50 [2] |
| --- | --- | --- |
| COc1ccc(C(=O)Nc2ccc(S(=O)(=O)Nc3nccc(C)n3)cc2)cc1OC | 0.00411 µM [falling, full curve, poor fit] |  |
| CC1CC(C)(C)CC2(C1)NC(=O)N(CC(=O)N1CCN(Cc3ccc(C#N)cc3)CC1)C2=O (centres undefined) | 5.8 µM [falling, single point] |  |
| O=C(COC(=O)c1ccccc1F)c1ccc(-n2nncc2-c2ccco2)cc1 | 12.6 µM [rising, single point] |  |
| CCCc1cc(-c2n[nH]c(=S)n2CC(C)C)cs1 | 0.326 µM [rising, full curve, poor fit] |  |
| CC(C)(C)c1ccc(Oc2ccc(NC(=O)c3ccco3)cn2)cc1 | 3.16 µM [rising, single point] |  |
| CCCC1=[N+](CC(=O)c2ccc(Br)cc2)CCn2cccc21 | 20 µM [rising, partial curve, poor fit] |  |
| c1ccc(CSc2ccc(-c3cccs3)nn2)cc1 | 0.82 µM [rising, full curve, poor fit] |  |
| Cc1cccc(C)c1OCC(=O)Nc1cccc(C(=O)O)c1 | 35.5 µM [falling, single point] |  |
| COc1cc(SC)ccc1C(=O)Nc1nccs1 | 11.2 µM [falling, partial curve, poor fit] |  |
| Cc1ccc(-c2nnc(SCCC(=O)N3CCOCC3)o2)cc1 | 10 µM [falling, partial curve] |  |
| O=C(CCc1ccccc1)Nc1ccc2c(c1)C(=O)OC2 | 3.98 µM [rising, partial curve, poor fit] |  |
| Fc1ccc(F)c(NC(=S)NCCc2ccccc2)c1 | 15.8 µM [falling, single point] |  |
| COc1ccc(CCNC(=O)c2cnn3c(C(F)F)cc(C)nc23)cc1OC | 6.51 µM [rising, full curve, poor fit] |  |
| Cc1ccc2nc(NC(=O)c3ccc(NS(=O)(=O)c4cccs4)cc3)sc2c1 | 5.8 µM [falling, partial curve] | 20.6 µM [rising, single point] |
| CS(=O)(=O)NCCSCc1ccc(Cl)cc1 | 35.5 µM [falling, single point] | 25.1 µM [rising, partial curve, poor fit] |
| COc1ccc2cc(S(=O)(=O)N3CCOCC3)ccc2c1 | 25.9 µM [rising, single point] |  |
| COc1ccc(-n2ncc(N(C)n3cccc3)c(Cl)c2=O)cc1 | 20 µM [rising, single point] |  |
| O=C(O)c1c(Cl)nc2ccccn12 | 2.82 µM [rising, full curve, poor fit] |  |
| CC(C)OC(=O)CSc1nnc2c(n1)[nH]c1ccc(F)cc12 | 35.5 µM [falling, single point] |  |

| SMILES | AC50 [1] | AC50 [2] |
| --- | --- | --- |
| COc1ccc(CCNC(=O)CSc2nc(-c3ccco3)cc(C(F)(F)F)n2)cc1OC | 0.517 µM [falling, partial curve, poor fit] |  |
| O=S(=O)(c1cccc(S(=O)(=O)N2CCOCC2)c1)N1CCCCC1 | 29.1 µM [falling, single point] |  |
| CCN1C(=NCCCCO)N[C@@H](c2cccc(C(F)(F)F)c2)C(C(=O)OC)=C1C | 10 µM [falling, partial curve] |  |
| Cn1c(NC(=O)c2ccc(Cl)s2)cc(=O)n(C)c1=O |  | 29.1 µM [rising, partial curve, poor fit] |
| COc1cccc(CN(Cc2ccccc2F)S(=O)(=O)c2ccc(S(=O)(=O)NCc3ccccc3)cc2)c1 | 16.4 µM [rising, single point] |  |
| CCCCNc1nc2ccccc2n1CC(=O)Nc1ccc2c(c1)OCCO2 | 2.82 µM [rising, partial curve, poor fit] |  |
| CC1=C(C(=O)OCc2ccccc2)C(c2cccc([N+](=O)[O-])c2)NC(=O)N1C (centres undefined) | 35.5 µM [falling, single point] |  |
| CC(C)(C)c1[nH]nc2c1C(c1ccc(OC(=O)c3ccco3)cc1)C(C#N)=C(N)O2 (centres undefined) | 0.398 µM [falling, full curve] |  |
| CCOC(=O)/C(C(=O)Nc1ccc(Br)cc1)=C1/NC(C)(C)Cc2ccccc21 | 11.6 µM [rising, partial curve, poor fit] |  |
| CC(C)(CNC(=O)CO/N=C1/C=C2CCC3C(C(O)C[C@@]4(C)C3CC[C@]4(O)C(=O)CO)[C@@]2(C)CC1)C(O)C(=O)O (some centres undefined) | 7.08 µM [rising, full curve, poor fit] | 5.62 µM [falling, full curve] |
| CCCC(=O)Nc1ncnc2c1ncn2[C@@H]1O[C@@H]2COP(=O)(O)O[C@H]2[C@H]1OC(=O)CCC | 20 µM [rising, partial curve, poor fit] | 23.1 µM [falling, partial curve, poor fit] |
| Nc1ccc(C(=O)N2CCN(S(=O)(=O)/C=C/c3ccccc3)CC2)cc1[N+](=O)[O-] | 1.3 µM [falling, partial curve, poor fit] |  |
| CCn1c(O)c(/C=C2\C=Nc3ccccc32)sc1=Nc1ccccc1 | 0.316 µM [rising, full curve, poor fit] |  |
| O=C(COc1ccc(Cl)cc1)N1CCN(S(=O)(=O)c2ccccc2)CC1 | 6.51 µM [rising, single point] |  |
| C[C@@]12C(=O)Nc3ccc(Br)cc3C(=O)N1[C@H]1c3cc(Cl)ccc3OC[C@@H]1[C@@H]2c1ccccc1 | 2.59 µM [falling, full curve] | 3.26 µM [rising, full curve, poor fit] |
| OCCNc1nc(-c2ccccc2)nc2c1oc1ccccc12 | 7.08 µM [falling, full curve, poor fit] |  |
| Cc1sc2nc3n(c(=O)c2c1C)CCCCC3 | 5.8 µM [rising, full curve, poor fit] |  |
| CN1C(=O)c2cccc(NC(=O)CCc3ccccc3)c2C1=O | 32.6 µM [falling, single point] |  |
| CC(=O)Nc1ccc(NC(=O)c2sc(-c3ccccc3)nc2C)cc1 | 14.1 µM [falling, single point] | 3.16 µM [rising, full curve, poor fit] |

Three compounds already listed, arranged by count of non-hydrogen atoms, largest number first:

| SMILES | AC50 [1] | AC50 [2] |
| --- | --- | --- |
| CCCC(=O)Nc1ncnc2c1ncn2[C@@H]1O[C@@H]2COP(=O)(O)O[C@H]2[C@H]1OC(=O)CCC | 20 µM [rising, partial curve, poor fit] | 23.1 µM [falling, partial curve, poor fit] |
| CCN1C(=NCCCCO)N[C@@H](c2cccc(C(F)(F)F)c2)C(C(=O)OC)=C1C | 10 µM [falling, partial curve] |  |
| O=C(COc1ccc(Cl)cc1)N1CCN(S(=O)(=O)c2ccccc2)CC1 | 6.51 µM [rising, single point] |  |
